This note sets out measurements from US4684622A (SmithKline Beckman Corporation, priority 1986, dated 1987).

The nature of this series: general procedure: Boc solid-phase peptide synthesis; benzhydrylamine (BHA) resin; Merrifield resin; DCC/HBT (1-hydroxybenzotriazole). The following applies: whole synthesis.

The substance “Mpr(4-MeBzl)-D-Tyr-(Et)-Ile-Thr(OBzl)-Asn-Cys(4-MeBzl)-Arg(Tox)-Gly-BHA-R” had a crude yield (one disulfide bridge, sequence written open) of 87.81%.

“d-Pen(4-MeBzl)-D-Tyr-(Et)-Phe-Gln-Asn-Cys(4-MeBzl)-Arg(Tos)-BHA-resin” showed a crude yield of 83.85%.

In turn, “dPen(4-MeBzl)-Tyr(Me)-Phe-Gln-Asn-Cys(4-MeBzl)-Arg(Tos)-BHA-resin” displayed a crude yield of 75%.

For “dPen-(4-MeBz)-Tyr(Me)-Phe-Gln-Asn-Cys(4-MeBz)-Arg(Tos)-BHA resin”, the crude yield was found to be 60%.
